# Some entries share one result that the patent states for a list of compounds.
# Test system: transgenic mice expressing an SOD-1 mutant gene (G86R)
# Assay: Survival test for transgenic mice expressing an SOD-1 mutant gene
# Assay type: in vivo, mouse
# Conditions: G86R SOD-1 transgenic mice
# Procedure: Ten transgenic mice were subjected to the survival test. The transgenic mice employed were those in which Gly-86 in the fourth exon of a mouse SOD-1 gene is mutated to Arg (G86R) (Ripps M. E., et al.: Proc. Natl. Acad. Sci. USA. 92: 689–693, 1995). The compound of Preparation Example 10 [3-(14-hydroxytetradecyl)-4-methyl-2-cyclohexen-1-one] was dissolved in ethanol/Tween 80/physiological saline (5/2.85/92.15). The solution was intraperitoneally (i.p.) administered to five specimens at an effective dose of 2 mg/kg for 40 continuous days, and physiological saline alone was similarly administered to the other five specimens. One mouse died due to injection complication before elapse of 90 days. The other four mice died at day 150. All control animals died at about day 90. The life was prolonged by 50% or more, which has high significance.
# (1) Transgenic mice expressing an SOD-1 mutant gene were subjected to the survival test in the same manner as Test Example 1 except that 8 mg/kg of compound of Preparation Example 10 was intraperitoneally administered three times a week until the mice died. […] The life was prolonged by 30% or more.
# (3) Moreover, in the survival test of transgenic mice (1), onset day (i.e., the day from which mouse becomes impossible to move) was compared between the mouse to which was administered compound of Preparation Example 10 and the control mouse. […]
smiles,measurement,value
"O=C1C=C(CCCCCCCCCCO)CCC1 [Preparation Example 1, 3-(10-hydroxydecyl)-2-cyclohexen-1-one]",life of transgenic mice as compared with control group (in words),prolongs significantly
